Results deposited as PubChem BioAssay AID1224830 (NIAID, 2016).
Aim: 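Regulators of TLR4 signalling towards TNF-alpha in macrophage-like cells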 (primary screen). System: human THP-1 monocytic leukaemia cells, TNF dual-luciferase reporter clone, PMA-differentiated to macrophage-like cells. Reagents: siRNA pool against human genes, 50 nM. Time to read-out: LPS for 4 h, given about 3 days after siRNA transfection. Conditions: bacterial LPS (TLR4 ligand), 10 ng/ml. Measured: 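Ratio of firefly to renilla light, scaled to the plate median and expressed as a robust z-score per replicate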. Direction: TNF reporter robust z-score: higher = stronger TNF reporter response to LPS. Active means: 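a well is active when its z-score exceeds 2.8 or falls below -1.5; control wells carry no call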.
This is a random part of about 18,000 deposited reagents. In the full data, about 2,900 (16%) got an active call. 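Calls are made per well; low scores hint the gene aids the LPS response, high scores that it dampens it.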 Repeated entries: four replicate wells of each siRNA pool.

The opening 13 entries, ahead of the listing:
| gene symbol | TNF reporter robust z-score | call |
| --- | --- | --- |
| PPP2R1A | 2.13 | inactive |
| PPP2R1A | 4.36 | active |
| PPP2R1A | 1.36 | inactive |
| PPP2R1A | 0.03 | inactive |
| VSTM2A | 0.29 | inactive |
| VSTM2A | 1.14 | inactive |
| VSTM2A | 2.87 | active |
| VSTM2A | 1.79 | inactive |
| OLFM1 | -0.86 | inactive |
| OLFM1 | -1.18 | inactive |
| OLFM1 | -1.06 | inactive |
| OLFM1 | 0.19 | inactive |
| FASTKD4 | 0.56 | inactive |

The list itself, from the start:
| gene symbol | TNF reporter robust z-score | call |
| --- | --- | --- |
| PPP2R1A | 2.13 | inactive |
| PPP2R1A | 4.36 | active |
| PPP2R1A | 1.36 | inactive |
| PPP2R1A | 0.03 | inactive |
| VSTM2A | 0.29 | inactive |
| VSTM2A | 1.14 | inactive |
| VSTM2A | 2.87 | active |
| VSTM2A | 1.79 | inactive |
| OLFM1 | -0.86 | inactive |
| OLFM1 | -1.18 | inactive |
| OLFM1 | -1.06 | inactive |
| OLFM1 | 0.19 | inactive |
| FASTKD4 | 0.56 | inactive |
| FASTKD4 | 0.51 | inactive |
| FASTKD4 | 1.24 | inactive |
| FASTKD4 | 0.92 | inactive |
| HERC1 | -0.22 | inactive |
| HERC1 | -0.51 | inactive |
| HERC1 | -0.57 | inactive |
| TNFRSF21 | -0.68 | inactive |
| TNFRSF21 | 0.51 | inactive |
| TNFRSF21 | 1.16 | inactive |
| KRTAP3-2 | -0.07 | inactive |
| KRTAP3-2 | -0.44 | inactive |
| KRTAP3-2 | -0.46 | inactive |
| KRTAP3-2 | -0.48 | inactive |
| KPNA5 | -0.61 | inactive |
| KPNA5 | 0.26 | inactive |
| KPNA5 | 0.17 | inactive |
| KPNA5 | 1.2 | inactive |
| CACNG2 | 0.3 | inactive |
| CACNG2 | -0.11 | inactive |
| CACNG2 | -0.8 | inactive |
| CACNG2 | -0.15 | inactive |
| ADSS2 | -0.57 | inactive |
| ADSS2 | -0.33 | inactive |
| ADSS2 | -0.18 | inactive |
| ADSS2 | -0.04 | inactive |
| HSH2D | 1.76 | inactive |
| HSH2D | 0.25 | inactive |
| HSH2D | 0.45 | inactive |
| HSH2D | 1.06 | inactive |
| ITFG1 | 0.56 | inactive |
| ITFG1 | 0.84 | inactive |
| ITFG1 | 0.48 | inactive |
| ITFG1 | 0.47 | inactive |
| TIMM21 | -1.04 | inactive |
| TIMM21 | 0.62 | inactive |
| TIMM21 | -0.23 | inactive |
| TIMM21 | 0.19 | inactive |
| CTSD | -0.78 | inactive |
| CTSD | -0.54 | inactive |
| CTSD | 0.79 | inactive |
| CTSD | -0.68 | inactive |
| ZRANB2 | -1.61 | active |
| ZRANB2 | -0.91 | inactive |
| ZRANB2 | -0.95 | inactive |
| ZRANB2 | -0.55 | inactive |
| FBXW8 | 0.29 | inactive |
| FBXW8 | 3.58 | active |
| FBXW8 | 1.18 | inactive |
| FBXW8 | -0.02 | inactive |
| PPP4R4 | 0.94 | inactive |
| PPP4R4 | 0.09 | inactive |
| PPP4R4 | -0.39 | inactive |
| PPP4R4 | 0.96 | inactive |
| GNAI1 | -0.47 | inactive |
| GNAI1 | -1.15 | inactive |
| GNAI1 | -0.3 | inactive |
| GNAI1 | 0.62 | inactive |
| HINFP | -0.21 | inactive |
| HINFP | 0.26 | inactive |
| HINFP | -1.27 | inactive |
| HINFP | -0.63 | inactive |
| RBBP8NL | -0.96 | inactive |
| RBBP8NL | 0.1 | inactive |
| RBBP8NL | -0.12 | inactive |
| RBBP8NL | -0.95 | inactive |
| SMTN | -1.01 | inactive |
| SMTN | -0.54 | inactive |
| SMTN | -0.62 | inactive |
| SMTN | 0.64 | inactive |
| TNFRSF11A | -0.84 | inactive |
| TNFRSF11A | -0.96 | inactive |
| TNFRSF11A | -0.94 | inactive |
| TNFRSF11A | -0.41 | inactive |
| CBLN2 | -0.86 | inactive |
| CBLN2 | -0.34 | inactive |
| CBLN2 | -0.31 | inactive |
| CBLN2 | 0.39 | inactive |
| ISL2 | -0.28 | inactive |
| ISL2 | 0.94 | inactive |
| ISL2 | 1.31 | inactive |
| ISL2 | 1.37 | inactive |
| SCN1A | 1.23 | inactive |
| SCN1A | 3.4 | active |
| SCN1A | 0.43 | inactive |
| SCN1A | 0.34 | inactive |
| ABCC2 | 1.11 | inactive |
| ABCC2 | 1.19 | inactive |
| ABCC2 | 2.14 | inactive |
| ABCC2 | 1.9 | inactive |
| LAPTM5 | 2.03 | inactive |
| LAPTM5 | 2.92 | active |
| LAPTM5 | -0.5 | inactive |
| LAPTM5 | 0.55 | inactive |
| ZAR1 | -1.06 | inactive |
| ZAR1 | 0.79 | inactive |
| ZAR1 | 0.2 | inactive |
| ZAR1 | -0.48 | inactive |
